Weaker means in comparison with the reference protein, sequence or condition of that experiment. For some assays here: The exact form of at least one protein or probe is not confirmed. For some assays here: At least one verdict rests on a figure or table, not on a statement of the authors.
Key:
[1] = system: METTL3 WT + METTL14 R298P; test: 2-aminopurine fluorescence titration; conditions: 10 mM MgCl2; 2-aminopurine at position 7 (written as A); recombinant protein; protein details: His-tag removed by TEV; label: 2-aminopurine
[2] = system: METTL3 E481A + METTL14 WT; test: fluorescence polarization; conditions: FP: 10 mM HEPES pH 7.5, 50 mM KCl, 5 nM RNA, recombinant protein, protein details: His-tag removed by TEV, label: 5' fluorescein
[3] = system: METTL3 H478A + METTL14 WT; test: fluorescence polarization; conditions: FP: 10 mM HEPES pH 7.5, 50 mM KCl, 5 nM RNA, recombinant protein, protein details: His-tag removed by TEV, label: 5' fluorescein
[4] = system: METTL3 K459A + METTL14 WT; test: fluorescence polarization; conditions: FP: 10 mM HEPES pH 7.5, 50 mM KCl, 5 nM RNA, recombinant protein, protein details: His-tag removed by TEV, label: 5' fluorescein
[5] = system: METTL3 R471H + METTL14 WT; test: fluorescence polarization; conditions: nanomolar, FP: 10 mM HEPES pH 7.5, 50 mM KCl, 5 nM RNA, recombinant protein, protein details: His-tag removed by TEV, label: 5' fluorescein
[6] = system: METTL3 T433A + METTL14 WT; test: fluorescence polarization; conditions: FP: 10 mM HEPES pH 7.5, 50 mM KCl, 5 nM RNA, recombinant protein, protein details: His-tag removed by TEV, label: 5' fluorescein
[7] = system: METTL3 WT + METTL14 R298P; test: fluorescence polarization; conditions: weakest mutant, nanomolar, FP: 10 mM HEPES pH 7.5, 50 mM KCl, 5 nM RNA, recombinant protein, protein details: His-tag removed by TEV, label: 5' fluorescein
[8] = system: METTL3 del472-473 + METTL14 WT; test: fluorescence polarization; conditions: FP: 10 mM HEPES pH 7.5, 50 mM KCl, 5 nM RNA, recombinant protein, protein details: His-tag removed by TEV, label: 5' fluorescein
[9] = system: METTL3 del472-474 + METTL14 WT; test: fluorescence polarization; conditions: FP: 10 mM HEPES pH 7.5, 50 mM KCl, 5 nM RNA, recombinant protein, protein details: His-tag removed by TEV, label: 5' fluorescein

Measured: binding result

CUUCGGACUCUGCU [r6T* (2-Ap)]
binds more weakly: [1]

GCCUAGUAGCAGAGAGGACUGCUCCUUGGU [Fl-NEAT2* (A-RNA)]
binds more weakly: [2] | [3] | [4] | [5] | [6] | [7] | [8] | [9]

GCCUAGUAGCAGAGAGGACUGCUCCUUGGU [Fl-NEAT2*-m6A (m6A-RNA)]
binds more weakly: [2]; m6A at position 18 | [3]; m6A at position 18 | [4]; m6A at position 18 | [5]; m6A at position 18 | [6]; m6A at position 18 | [7]; m6A at position 18 | [8]; m6A at position 18 | [9]; m6A at position 18

From article PMC10441475, “Structure of METTL3-METTL14 with an m6A nucleotide reveals insights into m6A conversion and sensing”
